Test results reported in PMC6344896.
Construct, isoform or probe ends are uncertain for at least one entry. For part of these data: At least one verdict was read from the data and is not stated in words by the source.

By UniProt entry, the sequences of proteins in these tests, tags left out. Residues count along the entry.
UniProt Q15717, 1-186: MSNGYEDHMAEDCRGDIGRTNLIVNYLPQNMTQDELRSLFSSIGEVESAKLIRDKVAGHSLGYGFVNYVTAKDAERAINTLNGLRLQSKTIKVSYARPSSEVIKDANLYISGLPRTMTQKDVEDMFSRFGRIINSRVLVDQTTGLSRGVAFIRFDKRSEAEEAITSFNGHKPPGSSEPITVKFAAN
UniProt Q15717, whole entry W261E: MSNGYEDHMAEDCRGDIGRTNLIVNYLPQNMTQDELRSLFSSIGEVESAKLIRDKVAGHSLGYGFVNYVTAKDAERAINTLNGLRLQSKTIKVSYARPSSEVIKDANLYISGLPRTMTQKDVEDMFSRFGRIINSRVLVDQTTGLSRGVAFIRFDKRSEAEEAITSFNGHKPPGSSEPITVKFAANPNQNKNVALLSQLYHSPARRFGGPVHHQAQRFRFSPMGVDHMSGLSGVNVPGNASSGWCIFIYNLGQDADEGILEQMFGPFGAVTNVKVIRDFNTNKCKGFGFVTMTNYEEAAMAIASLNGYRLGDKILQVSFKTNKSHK

How the values were obtained:
HuR RRM1,2 (human) [1] = target: HuR RRM1,2 (human) (UniProt Q15717); assay: NMR; conditions: 1:1.1; NMR: 20 mM sodium phosphate pH 7.0, 200 mM NaCl, 5 mM DTT, 1 mM EDTA, 298 K; recombinant protein; residues 1-186; protein details: pETM11 His6, cleaved
HuR RRM1,2 (human) [2] = target: HuR RRM1,2 (human) (UniProt Q15717); assay: ITC; conditions: n=0.9; ITC: 50 mM sodium phosphate pH 7.0, 200 mM NaCl, 2 mM beta-mercaptoethanol, 298 K; recombinant protein; residues 1-186; protein details: pETM11 His6, cleaved
HuR W261E (human) = HuR W261E (human) (UniProt Q15717); assay: SEC-SAXS; conditions: more compact when bound; recombinant protein; residues 1-326; protein details: untagged (tag cleaved)

Sequence | binding result (HuR RRM1,2 (human) [1]) | Kd (HuR RRM1,2 (human) [2]) | binding result (HuR W261E (human))
AUUUUUAUUUUA [AU12] | binds | – | –
AUUUUUAUUUUAUUUUU [AU17] | – | 215 nM | binds
